These are yes or no findings as the source states them, for the method shown. Binding seen in cells or lysates may run through a third protein. Some entries that bind do so weakly or less than the wild type.
Assays:
[1] = target: ezrin (human (endogenous in A549)) (UniProt P15311); test: co-IP; whole cell lysates of control A549 cells not exposed to LPS; anti-ezrin antibody overnight, protein A/G agarose beads 6 h, blots with anti-MyD88, anti-IRAK-1
[2] = target: ezrin (human (endogenous in A549)) (UniProt P15311); test: co-IP; whole cell lysates of A549 cells challenged with LPS (1 µg/mL), for Syk also control cells without LPS; with or without ROCK1 siRNA or ezrin siRNA; anti-ezrin antibody overnight, protein A/G agarose beads 6 h, blots with anti-Syk, anti-MyD88, anti-IRAK-1

The chains behind the UniProt entries cited, without tags or fusion partners.
UniProt P15311: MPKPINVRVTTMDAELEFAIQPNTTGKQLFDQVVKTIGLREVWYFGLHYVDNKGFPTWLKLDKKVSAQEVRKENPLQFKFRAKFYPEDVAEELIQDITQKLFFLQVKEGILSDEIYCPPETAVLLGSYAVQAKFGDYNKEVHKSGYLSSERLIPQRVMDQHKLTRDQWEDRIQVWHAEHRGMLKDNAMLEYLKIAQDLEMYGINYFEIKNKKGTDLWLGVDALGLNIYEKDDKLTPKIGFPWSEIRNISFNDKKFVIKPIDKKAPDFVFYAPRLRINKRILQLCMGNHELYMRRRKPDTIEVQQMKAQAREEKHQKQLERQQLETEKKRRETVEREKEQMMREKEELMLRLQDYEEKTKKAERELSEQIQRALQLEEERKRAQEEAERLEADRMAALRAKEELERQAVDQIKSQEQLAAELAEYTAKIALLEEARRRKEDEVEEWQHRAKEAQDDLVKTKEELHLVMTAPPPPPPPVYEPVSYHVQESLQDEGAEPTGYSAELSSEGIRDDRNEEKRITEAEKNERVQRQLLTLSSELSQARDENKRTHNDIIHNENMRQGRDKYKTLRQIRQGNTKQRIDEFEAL
UniProt P51617: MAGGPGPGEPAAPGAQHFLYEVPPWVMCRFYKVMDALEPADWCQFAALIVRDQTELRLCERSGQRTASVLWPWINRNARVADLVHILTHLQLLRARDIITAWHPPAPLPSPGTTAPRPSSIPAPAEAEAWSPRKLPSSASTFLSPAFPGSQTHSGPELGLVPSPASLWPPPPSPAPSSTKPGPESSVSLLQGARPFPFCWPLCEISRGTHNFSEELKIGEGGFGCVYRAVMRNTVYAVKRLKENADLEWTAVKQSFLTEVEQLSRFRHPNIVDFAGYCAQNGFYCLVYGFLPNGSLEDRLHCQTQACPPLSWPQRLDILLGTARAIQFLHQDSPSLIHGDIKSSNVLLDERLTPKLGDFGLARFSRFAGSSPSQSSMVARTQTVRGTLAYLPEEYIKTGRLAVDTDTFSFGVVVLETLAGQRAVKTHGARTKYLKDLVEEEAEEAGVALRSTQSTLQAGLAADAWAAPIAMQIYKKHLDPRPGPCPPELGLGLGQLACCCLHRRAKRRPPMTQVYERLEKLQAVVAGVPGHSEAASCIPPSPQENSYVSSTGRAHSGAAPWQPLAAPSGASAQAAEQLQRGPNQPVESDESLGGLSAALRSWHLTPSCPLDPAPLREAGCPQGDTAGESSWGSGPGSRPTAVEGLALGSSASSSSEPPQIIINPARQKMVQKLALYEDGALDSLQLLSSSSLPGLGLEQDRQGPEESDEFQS
UniProt Q99836: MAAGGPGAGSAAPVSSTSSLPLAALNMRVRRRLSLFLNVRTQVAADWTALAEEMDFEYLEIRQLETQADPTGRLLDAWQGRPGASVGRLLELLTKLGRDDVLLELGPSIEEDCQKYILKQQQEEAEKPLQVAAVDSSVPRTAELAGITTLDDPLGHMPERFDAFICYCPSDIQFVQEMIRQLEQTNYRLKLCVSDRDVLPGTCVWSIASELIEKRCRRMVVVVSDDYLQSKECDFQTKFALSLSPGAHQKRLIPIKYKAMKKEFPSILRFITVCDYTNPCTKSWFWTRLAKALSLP

Row | Substance | binding [1] | binding [2]
1 | IL-1R-associated kinase 1 (from UniProt P51617 1-712) | no binding (condition: cells without LPS stimulation) | binds
2 | myeloid differentiation factor 88 (from UniProt Q99836 1-296) | no binding (condition: cells without LPS stimulation) | binds

— article PMC9097379
